Test results reported in US6878521B1, “Fibril-blocking peptide, a method for preventing fibril formation” (The University of Chicago, priority 1999, dated 2005).
Results are given in words; binding and its absence hold for the method and conditions named. Some binding calls cover weakened binding; strength is not graded here.

Amino acid sequences for entries named in this document (tags omitted).
UniProt P0DMV8: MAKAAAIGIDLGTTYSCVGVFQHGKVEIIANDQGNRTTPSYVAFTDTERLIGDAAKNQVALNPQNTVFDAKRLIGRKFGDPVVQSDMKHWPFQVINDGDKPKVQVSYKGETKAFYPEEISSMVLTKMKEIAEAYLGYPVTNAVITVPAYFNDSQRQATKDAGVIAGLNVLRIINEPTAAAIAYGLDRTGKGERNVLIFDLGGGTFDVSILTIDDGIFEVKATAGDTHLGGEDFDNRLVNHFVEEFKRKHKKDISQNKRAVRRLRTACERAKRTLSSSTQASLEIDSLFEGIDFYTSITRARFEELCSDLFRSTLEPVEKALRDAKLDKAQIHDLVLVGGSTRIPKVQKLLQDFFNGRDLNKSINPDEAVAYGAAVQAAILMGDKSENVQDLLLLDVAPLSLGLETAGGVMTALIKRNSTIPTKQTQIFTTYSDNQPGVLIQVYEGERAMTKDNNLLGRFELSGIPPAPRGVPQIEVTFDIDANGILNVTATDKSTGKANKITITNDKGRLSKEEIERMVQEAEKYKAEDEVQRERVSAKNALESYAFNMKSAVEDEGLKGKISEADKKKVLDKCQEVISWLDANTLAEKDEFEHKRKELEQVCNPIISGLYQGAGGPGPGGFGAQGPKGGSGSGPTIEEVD

Molecular target: Hsp70 (heat shock protein 70), inducible gene from the pETWThsp70 vector; recombinant in vitro and over-expressed in COS-1 cells (UniProt P0DMV8)
Test: peptide binding to Hsp70, method not described

B1: FTLTISS peptide (residues 71-77 of human kappa-IV light chain variable domain) (peptide)
peptide: FTLTISS
  binding: binds
